## Library screen at single concentrations

The chains behind the UniProt entries cited, without tags or fusion partners.
UniProt P9WPC5, whole entry: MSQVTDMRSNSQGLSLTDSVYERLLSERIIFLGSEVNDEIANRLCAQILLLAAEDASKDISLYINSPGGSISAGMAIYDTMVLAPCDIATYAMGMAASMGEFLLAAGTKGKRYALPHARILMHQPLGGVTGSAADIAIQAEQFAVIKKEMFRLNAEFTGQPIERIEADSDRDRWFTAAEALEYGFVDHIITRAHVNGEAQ
UniProt P9WPC3, whole entry partner: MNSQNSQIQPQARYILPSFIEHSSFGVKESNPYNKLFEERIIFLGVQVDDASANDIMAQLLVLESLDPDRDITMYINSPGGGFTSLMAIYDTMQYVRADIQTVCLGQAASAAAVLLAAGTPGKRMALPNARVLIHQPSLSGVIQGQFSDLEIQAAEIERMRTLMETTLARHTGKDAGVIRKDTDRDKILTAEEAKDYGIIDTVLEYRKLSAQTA
UniProt P9WFT3, whole entry: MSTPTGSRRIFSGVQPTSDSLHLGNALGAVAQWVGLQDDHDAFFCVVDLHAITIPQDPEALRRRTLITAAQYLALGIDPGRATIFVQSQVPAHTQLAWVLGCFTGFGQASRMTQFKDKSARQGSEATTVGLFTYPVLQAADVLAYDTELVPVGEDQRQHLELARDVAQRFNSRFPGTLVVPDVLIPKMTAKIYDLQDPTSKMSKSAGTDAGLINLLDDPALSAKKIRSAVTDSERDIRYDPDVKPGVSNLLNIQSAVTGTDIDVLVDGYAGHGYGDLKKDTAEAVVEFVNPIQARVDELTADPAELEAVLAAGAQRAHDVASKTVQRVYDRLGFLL

From ChEMBL document CHEMBL3988442, “University of Dundee, Small-Polar-MMV Screening Library” (2021).

Values are the deposited “Percent Effect”, in %.
The record does not define 0% and 100%; most values in the screen are far below 50% and negative numbers occur (in some assays of this library far below -100).
The compounds are a random part of those screened.

ClpP1P2: 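ClpP1P2, Mycobacterium tuberculosis (UniProt P9WPC5 and UniProt P9WPC3). Protease assay of ClpP1P2, read by the AMC dye that it sets free. Tested at 50 µM. Direction is inferred from only a few compounds that gave an IC50; most scored high, so higher reads as stronger inhibition. Most other retested compounds had strongly negative values. Size under these conditions: about 69,000 compounds, about 10 of them at 50% or above in at least one test.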
MtTrpRS: 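Tryptophan-tRNA ligase, Mycobacterium tuberculosis (UniProt P9WFT3). Enzyme assay of tryptophanyl-tRNA synthetase; the read-out is not stated. Tested at 10 µM. Direction is not recorded; retested compounds ran higher, which suggests that high means inhibition. Of about 65,000 compounds tested this way, about 64 (0.098%) reached 50% or more in at least one test.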

- CN(c1nc(Cn2cc(Br)ccc2=O)cs1)C1CC1 : ClpP1P2: -3.071%; MtTrpRS: 3.549%
- C=C(C)COc1cccc(C(=O)N2CCC(O)(c3ccccc3)CC2)c1 : ClpP1P2: -4.179%; MtTrpRS: 12.79%
- Cc1cc(C)c2cc(CNC3CCCCC3)c3nn(C)c(=O)n3c2c1 : ClpP1P2: -66.66%
- Cc1nn(CCNS(=O)(=O)NCc2ccccc2)c(C)c1Cl : ClpP1P2: -12.71%; MtTrpRS: -2.472%
- CNC(=O)[C@@H]1CN(C(=O)C2CCC2)C[C@H]1c1ccnc(N2CCCC2)n1 : ClpP1P2: -17.91%; MtTrpRS: -8.548%
- CCN1CCC(NC(=O)CN2CCCC2Cn2nc(C)cc2C)CC1 (stereo not given) : ClpP1P2: 11.33%; MtTrpRS: 2.113%
- Cc1cc(C)n(-c2ccc(CNCc3ccc(F)cc3F)cn2)n1 : ClpP1P2: -25.63%; MtTrpRS: -2.699%
- COc1ccc(C2(c3nc(-c4cnn(C)c4)no3)CCOCC2)cc1 : ClpP1P2: 0.3997%; MtTrpRS: -4.161%
- NC(=O)Cn1ccc(NC(=O)C2(c3cccc(F)c3)CCC2)n1 : ClpP1P2: -9.047%; MtTrpRS: -0.7048%
- COc1ccc(CN2CCOC[C@H](OCC(=O)N(C)C)C2)cc1 : ClpP1P2: -13.44%; MtTrpRS: -0.8391%
- c1nc(N2CCCC2)ncc1CN1CCCC(CN2CCCCC2)C1 (stereo not given) : ClpP1P2: 23.03%; MtTrpRS: 1.665%
- CC(=O)Nc1nc(CN2CCOC(Cn3cc(C)cn3)C2)cs1 (stereo not given) : ClpP1P2: 21.77%; MtTrpRS: 3.206%
- O=C1CCC2(CCCN(C(=O)Cc3cccs3)C2)N1 (stereo not given) : ClpP1P2: -13.08%; MtTrpRS: -1.698%
- CN1CCCN(Cn2nc(-c3ccccc3F)ccc2=O)CC1 : ClpP1P2: -15.69%; MtTrpRS: -0.06325%
- Cc1c(CCC(=O)Nc2ccc(Br)cn2)cnn1C : ClpP1P2: -0.81%; MtTrpRS: 4.235%
- Cc1cc(CN2CCN(C(=O)NC(C)c3ccc(C)o3)CC2)on1 (stereo not given) : ClpP1P2: -19.26%; MtTrpRS: -3.202%
- COCC(C)NC(=O)c1nnn(-c2ccc(Br)cc2)n1 (stereo not given) : ClpP1P2: -4.033%; MtTrpRS: 18.01%
- CC(C)C(=O)N1CCCC1c1nc(N(C)C)ncc1-c1ccc(Cl)cc1 (stereo not given) : ClpP1P2: 10.56%; MtTrpRS: 2.649%
- CCCN(Cc1nccn1C)C(=O)c1cc(C)nc(C)n1 : ClpP1P2: -19.23%; MtTrpRS: -3.039%
- Cc1cc(CN2CCC(C3Nc4ccccc4S(=O)(=O)N3)CC2)oc1C (stereo not given) : ClpP1P2: -8.799%
- Cc1occc1C(=O)N1CCOC2(CCCC2)C1 : ClpP1P2: -4.51%; MtTrpRS: -4.461%
- Cc1nn(C)c(Cl)c1C1CCCN1Cc1nnc(C2CC2)o1 (stereo not given) : ClpP1P2: 1.759%; MtTrpRS: -2.534%
- CC(=O)Nc1nc(C(=O)NC(C)c2ccc(F)cc2)cs1 (stereo not given) : ClpP1P2: 15.18%; MtTrpRS: -3.831%
- CCCc1nc(N(C)Cc2cnc(NC)nc2)c2cnn(C)c2n1 : ClpP1P2: -7.105%; MtTrpRS: 14.97%
- CCC(C)Oc1ccccc1CN1Cc2ncccc2C1=O (stereo not given) : ClpP1P2: -13.13%; MtTrpRS: -2.514%
- COCC(O)CNc1cncc(Br)c1 (stereo not given) : ClpP1P2: -14.35%; MtTrpRS: 4.161%
- Cc1ccccc1CC(=O)N1C[C@@H](O)[C@H](N2CCN(C)CC2)C1 : ClpP1P2: -11.84%; MtTrpRS: -8.041%
- NC(=O)C1CCCCN1C(=O)c1ccc(Br)s1 (stereo not given) : ClpP1P2: 13.64%; MtTrpRS: 2.279%
- CCc1cnc(CNC(=O)N2CCCC(c3ncc[nH]3)C2)s1 (stereo not given) : ClpP1P2: -12.05%; MtTrpRS: 1.012%
- Cn1cnnc1C1CCCN(C(=O)c2n[nH]c3ccccc23)C1 (stereo not given) : ClpP1P2: 9.807%; MtTrpRS: 1.642%
- Nc1ccc(CC2COc3ccccc3C2)cn1 (stereo not given) : ClpP1P2: -1.147%; MtTrpRS: -4.446%
- CCS(=O)(=O)N1CCc2cc(C(=O)N(C)C)c(NCC3CC3)nc2CC1 : ClpP1P2: 10.71%; MtTrpRS: -4.265%
- O=C(c1ccc[nH]1)N1CCCC(c2cc(C(F)(F)F)[nH]n2)C1 (stereo not given) : ClpP1P2: 4.065%; MtTrpRS: 2.242%